Reference: patent US20190350933A1
These are yes or no findings as the source states them, for the method shown. For part of these data: Binding seen in cells or lysates may run through a third protein. Some results given as binding are weak or reduced against the parent protein; the word gives no strength.

Chains of the proteins cited; added tags and fusions are not shown. Residues count along the entry.
UniProt P40763, residues 2-770: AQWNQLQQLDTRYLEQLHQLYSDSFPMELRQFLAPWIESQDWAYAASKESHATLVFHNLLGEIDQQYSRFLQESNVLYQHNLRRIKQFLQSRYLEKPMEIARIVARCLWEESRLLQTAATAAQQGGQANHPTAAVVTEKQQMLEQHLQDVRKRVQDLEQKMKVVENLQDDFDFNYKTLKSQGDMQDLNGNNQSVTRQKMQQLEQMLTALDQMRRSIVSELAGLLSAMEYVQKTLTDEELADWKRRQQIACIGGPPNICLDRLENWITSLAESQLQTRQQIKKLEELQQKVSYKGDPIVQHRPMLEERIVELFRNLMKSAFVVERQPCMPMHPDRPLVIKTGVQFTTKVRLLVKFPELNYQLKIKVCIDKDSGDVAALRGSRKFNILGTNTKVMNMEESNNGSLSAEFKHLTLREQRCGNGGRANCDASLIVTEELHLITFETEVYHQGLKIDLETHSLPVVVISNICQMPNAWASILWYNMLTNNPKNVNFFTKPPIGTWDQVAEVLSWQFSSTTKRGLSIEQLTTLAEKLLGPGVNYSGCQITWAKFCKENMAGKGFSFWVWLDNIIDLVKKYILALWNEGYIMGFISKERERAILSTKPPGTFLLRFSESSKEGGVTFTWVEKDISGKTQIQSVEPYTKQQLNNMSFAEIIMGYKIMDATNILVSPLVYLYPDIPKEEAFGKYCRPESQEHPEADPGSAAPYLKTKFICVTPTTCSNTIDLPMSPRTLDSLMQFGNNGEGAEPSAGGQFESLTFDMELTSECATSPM

Legend:
STAT3 [1] = biological target: STAT3 (UniProt P40763); test: subcellular fractionation followed by immunoprecipitation, Western blot
STAT3 [2] = biological target: STAT3 (UniProt P40763); test: co-immunoprecipitation from subcellular fractions of HCC cells, Western blot
STAT3 [3] = biological target: STAT3 (UniProt P40763); test: co-immunoprecipitation (summary of results)

Measured: binding

B1: SLC29A2 (protein, UniProt Q14542 1-456, looked up)
chain: MARGDAPRDSYHLVGISFFILGLGTLLPWNFFITAIPYFQARLAGAGNSTARILSTNHTGPEDAFNFNNWVTLLSQLPLLLFTLLNSFLYQCVPETVRILGSLLAILLLFALTAALVKVDMSPGPFFSITMASVCFINSFSAVLQGSLFGQLGTMPSTYSTLFLSGQGLAGIFAALAMLLSMASGVDAETSALGYFITPCVGILMSIVCYLSLPHLKFARYYLANKSSQAQAQELETKAELLQSDENGIPSSPQKVALTLDLDLEKEPESEPDEPQKPGKPSVFTVFQKIWLTALCLVLVFTVTLSVFPAITAMVTSSTSPGKWSQFFNPICCFLLFNIMDWLGRSLTSYFLWPDEDSRLLPLLVCLRFLFVPLFMLCHVPQRSRLPILFPQDAYFITFMLLFAVSNGYLVSLTMCLAPRQVLPHEREVAGALMTFFLALGLSCGASLSFLFKALL
modifications: N-glycosylation sites at residue 48 and residue 57
binds: STAT3 [1] | STAT3 [2] | STAT3 [3]
